Each number is a percent effect as filed. The record does not define 0% and 100%; most values in the screen are far below 50% and negative numbers occur (in some assays of this library far below -100). This is an unselected part of the compounds tested. Two or more numbers in one place are separate tests of the same structure; such repeats can differ widely.

A: 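Whole-cell growth test on Mycobacterium tuberculosis, read after 4 days in a medium based on cholesterol and the lipid DPPC; the read-out is not stated. Compounds at 50 µM. Higher reads as more growth inhibition (inferred: compounds with an IC50 in retests scored well above the rest). About 69,000 compounds were tested under these conditions; 0.54% (about 370) showed 50% or more at least once.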
B: 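Growth of Mycobacterium tuberculosis over 3 days (7H9 medium with glucose and tyloxapol); the read-out is not stated. Tested at 50 µM. Higher reads as more growth inhibition (inferred: compounds with an IC50 in retests scored well above the rest). Of about 69,000 compounds tested this way, about 760 (1.1%) reached 50% or more in at least one test.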

| # | Compound | A | B |
|---|---|---|---|
| 1 | `O=C(c1cc(Cl)c(Br)[nH]1)N1CCN(Cc2ccco2)CC1` | -16.93% | -19.27% |
| 2 | `CC(=O)Nc1cccc(-c2ccccc2CCN)c1` | 18.62% | 60.09% |
| 3 | `Cc1cccc(C(C(=O)N2CC(c3ccccn3)C2)N(C)C)c1` (configuration not stated) | 2.076% | 27% |
| 4 | `Cc1noc(C(C)NC(=O)[C@@H](C)NC(=O)OC(C)(C)C)n1` (some centres not stated) | -9.348% | -2.043% and 24.53% |
| 5 | `Cc1nc(CN2CC3(CCN(c4ncccn4)C3)CC2=O)cs1.O=C(O)C(F)(F)F` (configuration not stated) | -20.91% | -6.648% |
| 6 | `CNCCCNc1nc(C2CCCC2)nc2c1cnn2C` | -2.748% and -4.28% | -3.649% |
| 7 | `CC(=O)c1cc(CN2C[C@@H](N(C)C)[C@H](C(C)C)C2)cs1` | -7.531% and -10.22% | -40.91% |
| 8 | `CCc1nc(CC(=O)N2CCn3c(nnc3C(C)C)C2)cs1` | 7.756% | 7.234% |
| 9 | `Cc1cc(-c2cnc(N3CCNC(=O)C3)nc2-c2sccc2C)on1` | -9.128% | 21.02% |
| 10 | `O=C(Cn1cc(I)cn1)N1CCc2ccccc2C1` | -1.684% | -3.835% |
| 11 | `COc1ccccc1C(C)N1CCN(S(C)(=O)=O)CC1` (configuration not stated) | -13.74% | 4.689% and 8.067% |
| 12 | `COCC(C)NC(=O)c1cncc(Br)c1` (configuration not stated) | -28.86% | -29.33% |
| 13 | `COc1c(CNCCNC(=O)c2ccc(C)cc2)c(C(C)C)nn1C` | 9.911% | -3.039% and -31.1% |
| 14 | `c1ccc(OCCN2CCc3c(ncn3C3CC3)C2)cc1` | 13.36% | 6.647% |
| 15 | `CN1CCN(S(=O)(=O)c2cccc(C#N)c2)c2ccc(F)cc21` | -5.925% | 8.091% |
| 16 | `Cc1csc(C2CCCN(C(=O)Cn3ccccc3=O)C2)n1` (configuration not stated) | 4.116% | 8.258% and -14.17% |
| 17 | `CN(C)S(=O)(=O)N1CCCC(c2ccncn2)C1` (configuration not stated) | 17.97% | 17.42% |
| 18 | `CCNC(c1ccc(C)cc1)c1cccnc1` (configuration not stated) | -0.6135% | 13.7% |
| 19 | `Cc1ccc(NC2CCN(C(=O)CCc3nccs3)CC2)nn1` | 9.258% | -2.254% and 12.5% |
| 20 | `Cc1nc(CNCc2ccc(OC34CCCN(CC3)C4)cc2)n[nH]1` (configuration not stated) | -2.274% | -23.98% |
| 21 | `CCN1CCN(Cc2coc(-c3cccc(F)c3)n2)CC1` | -6.786% | 13.49% |
| 22 | `O=C(c1cccnc1)N1CCC(Oc2cccc(C(F)(F)F)c2)CC1` | -0.7677% | 15.67% and 5.361% |
| 23 | `O=C(CC1CC1)N1CCC2(CC1)CN(c1cccnc1)C(=O)CO2.O=C(O)C(F)(F)F` | -1.145% | -9.828% |
| 24 | `NC(=O)C1CCN(C(=O)c2cc(Br)ccc2-n2cnnn2)CC1` | -18.73% | -31.08% |
| 25 | `COc1cc(N(C)Cc2cc(C(C)(C)C)n[nH]2)ncn1` | -15.04% | 2.697% and 8.808% |
| 26 | `CN1CCCN(c2nc(C3CCCC3)nc3c2cnn3C)CC1` | 8.609% | 21.97% and 26.58% |
| 27 | `CN(C(=O)CN1CCCC1c1cnn(C)c1)C(C)(C)C#N` (configuration not stated) | 5.701% and 13.84% | -8.01% |
| 28 | `COC(=O)C1CCN(C(=O)NCC(C)Cc2cccs2)CC1` (configuration not stated) | -3.254% | 27.02% |
| 29 | `CC(OCC1CC1)C(=O)N1CCCN(c2cccnn2)CC1` (configuration not stated) | -0.2145% | 17.46% |
| 30 | `O=C(NCCCc1ccco1)c1cnc(N2CCOCC2)nc1` | -9.75% | 4.294% |
| 31 | `CCC(=O)N1CCCCC1c1nc(CN(C)C(C)=O)cc(N(C)C)n1` (configuration not stated) | -3.318% and -16.53% | -21.6% |
| 32 | `O=C(Nc1ccccc1)N1CCn2c(nnc2C2CCCN2)C1` (configuration not stated) | -25.13% | 0.4786% |
| 33 | `CC(C)COCC(NC(=O)c1cc[nH]n1)c1ccco1` (configuration not stated) | 3.511% | 24.75% |
| 34 | `O=C1CNc2ncnc(N3CCN(Cc4cccc(F)c4)CC3)c2N1` | -17.23% | -21.16% |
| 35 | `CCOc1ccc(N2CCCN=C2NC(=O)c2ccc(Cl)cc2)cc1` | -10.21% | 61.44% |
| 36 | `COCc1ncn2c1CN(C(=O)c1ccc3ccccc3n1)CC2.O=C(O)C(F)(F)F` | -11.67% | -20.34% |
| 37 | `CNc1cnc(CC2COCCN(Cc3ccccc3)C2)cn1` (configuration not stated) | 4.945% | 22.56% |
| 38 | `CC(O)C(=O)N1CCC(c2nccn2Cc2cscn2)CC1` (configuration not stated) | -4.476% and -2.417% | -14.78% |
| 39 | `Cc1nc(C2CCCN(C(=O)c3c[nH]c(C(C)C)n3)C2)no1` (configuration not stated) | -7.495% | -10.76% |
| 40 | `CC(C)(C)CC(=O)NCC(=O)NCC(O)c1ccc2ccccc2c1` (configuration not stated) | -0.6278% | 0.8666% |
| 41 | `Cc1cc(C)c(CNC(=O)NCc2cc(F)cc(F)c2)c(=O)[nH]1` | -16.87% | 41.45% |
| 42 | `Cn1nc(COCC2CC2)c2c1CN(CC1CC1)CC2.O=C(O)C(F)(F)F.O=C(O)C(F)(F)F` | -14.92% | -4.638% |
| 43 | `CCCS(=O)(=O)N1CCC(NC(=O)c2cc(C)c(CC)s2)CC1` | 6.59% | 20.76% |
| 44 | `COc1ccc(COCC(O)CN(C)c2ccc(C)cc2C)cc1` (configuration not stated) | 50.28% | 36.75% and 45.07% |
| 45 | `CN(C)C1COC2(CCN(C(=O)c3cccnc3)CC2)C1` (configuration not stated) | 10.41% | -2.516% |
| 46 | `CCCc1n[nH]c(C2CN(Cc3nnc(C4CC4)n3C)CCO2)n1` (configuration not stated) | 8.606% | 16.39% |
| 47 | `COC(=O)CNC(=O)c1nc(Cl)sc1C(C)C` | -5.52% | 42.58% and 25.5% |
| 48 | `CCCNc1ccc(C(=O)NCCc2cccc(Cl)c2)cn1` | 3.563% | 21.85% |
| 49 | `CC(C)Nc1nc(N2CCCC2)nc2c1CN(S(C)(=O)=O)CC2` | -27.47% | 12.7% |
| 50 | `Cc1nc(C)n(C2CCCN(C(=O)c3cc(C(N)=O)cs3)C2)n1` (configuration not stated) | -10.85% | 10.76% |
| 51 | `Cc1nc(N2CCC(C)CC2)ncc1-c1cc(O)nc(N2CCCC2)n1` | -1.546% | 4.787% |
| 52 | `CC(C)C1CN(C(=O)c2nccnc2N)CCS1` (configuration not stated) | 0.5245% | 24.32% |
| 53 | `CC(=O)N1CC(C)CN(C(=O)c2cscn2)c2ccccc21` (configuration not stated) | -1.786% and -23.84% | -11.82% |
| 54 | `Cc1cccc(Oc2ccccc2CNC(=O)C2CCNC(=O)C2)c1` (configuration not stated) | -0.9932% and 3.904% | 15.91% |
| 55 | `CCCS(=O)(=O)CCSc1cccc(C#N)c1` | 14.74% | 2.025% and 9.327% |
| 56 | `O=C(c1ccnc(N2CCOC(c3ccc(Cl)cc3)C2)c1)N1CCCC1` (configuration not stated) | -0.7587% and 7.423% | 11.25% |
| 57 | `Cc1ncc(C(=O)NCCNc2ccncc2)s1` | -34.71% | -14.98% |
| 58 | `COCCn1ccc(NC(=O)Nc2cccnc2)n1` | 4.63% | 8.817% and 14.13% |
| 59 | `CC(O)CN1CCC(CNCc2ccc(C(N)=O)cc2)CC1` (configuration not stated) | -30.09% | -5.602% |
| 60 | `CC(C)Nc1nc2c(s1)C(=O)CN(C(=O)NCCc1ccccc1)C2` | 1.025% | 24.39% |
| 61 | `Cc1cnc(NCc2csc(C(C)C)n2)nc1-c1cnn(C)c1` | 11.31% | 2.086% and 9.594% |

Some entries from above, unchanged:

Compound	A	B
O=C(CC1CC1)N1CCC2(CC1)CN(c1cccnc1)C(=O)CO2.O=C(O)C(F)(F)F	-1.145%	-9.828%
CCNC(c1ccc(C)cc1)c1cccnc1 (configuration not stated)	-0.6135%	13.7%
O=C(NCCCc1ccco1)c1cnc(N2CCOCC2)nc1	-9.75%	4.294%
CC(C)(C)CC(=O)NCC(=O)NCC(O)c1ccc2ccccc2c1 (configuration not stated)	-0.6278%	0.8666%
O=C(Cn1cc(I)cn1)N1CCc2ccccc2C1	-1.684%	-3.835%
CN1CCN(S(=O)(=O)c2cccc(C#N)c2)c2ccc(F)cc21	-5.925%	8.091%
COc1ccc(COCC(O)CN(C)c2ccc(C)cc2C)cc1 (configuration not stated)	50.28%	36.75% and 45.07%

Measurements from “University of Dundee, Small-Polar-MMV Screening Library” (2021), ChEMBL document CHEMBL3988442.